Experimental findings from paper PMC4896453 are described below.

Protein sequences, listed by entry. Tags and fused reporters are not part of them.
UniProt P41146: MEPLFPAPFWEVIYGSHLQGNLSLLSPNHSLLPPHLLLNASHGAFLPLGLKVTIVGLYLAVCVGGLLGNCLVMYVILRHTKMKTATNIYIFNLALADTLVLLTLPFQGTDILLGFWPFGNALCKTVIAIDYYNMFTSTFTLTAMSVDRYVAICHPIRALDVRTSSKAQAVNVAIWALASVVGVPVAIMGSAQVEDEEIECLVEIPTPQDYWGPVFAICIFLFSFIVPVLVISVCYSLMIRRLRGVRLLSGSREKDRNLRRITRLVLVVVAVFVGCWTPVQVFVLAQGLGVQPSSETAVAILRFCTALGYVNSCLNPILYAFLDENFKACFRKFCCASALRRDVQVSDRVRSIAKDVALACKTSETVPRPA
UniProt P35372: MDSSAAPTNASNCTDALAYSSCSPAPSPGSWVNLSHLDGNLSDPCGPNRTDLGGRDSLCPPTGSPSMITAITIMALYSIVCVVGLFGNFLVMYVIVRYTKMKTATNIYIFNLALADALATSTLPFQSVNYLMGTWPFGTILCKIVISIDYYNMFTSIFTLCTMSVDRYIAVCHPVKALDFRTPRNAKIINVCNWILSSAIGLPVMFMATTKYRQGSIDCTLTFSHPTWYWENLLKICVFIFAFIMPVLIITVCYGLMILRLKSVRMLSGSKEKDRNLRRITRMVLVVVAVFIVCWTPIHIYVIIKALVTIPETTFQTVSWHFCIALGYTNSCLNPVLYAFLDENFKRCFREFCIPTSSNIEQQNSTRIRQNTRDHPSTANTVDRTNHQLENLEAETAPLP
UniProt P62873: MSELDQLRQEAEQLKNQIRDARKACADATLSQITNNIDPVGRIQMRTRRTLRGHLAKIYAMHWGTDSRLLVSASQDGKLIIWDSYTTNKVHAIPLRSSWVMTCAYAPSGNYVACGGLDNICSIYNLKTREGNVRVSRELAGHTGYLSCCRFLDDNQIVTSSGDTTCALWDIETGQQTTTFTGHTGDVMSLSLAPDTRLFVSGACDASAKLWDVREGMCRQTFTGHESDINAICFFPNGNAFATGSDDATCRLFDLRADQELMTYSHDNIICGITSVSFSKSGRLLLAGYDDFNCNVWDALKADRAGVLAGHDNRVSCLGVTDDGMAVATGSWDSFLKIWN
UniProt P32121: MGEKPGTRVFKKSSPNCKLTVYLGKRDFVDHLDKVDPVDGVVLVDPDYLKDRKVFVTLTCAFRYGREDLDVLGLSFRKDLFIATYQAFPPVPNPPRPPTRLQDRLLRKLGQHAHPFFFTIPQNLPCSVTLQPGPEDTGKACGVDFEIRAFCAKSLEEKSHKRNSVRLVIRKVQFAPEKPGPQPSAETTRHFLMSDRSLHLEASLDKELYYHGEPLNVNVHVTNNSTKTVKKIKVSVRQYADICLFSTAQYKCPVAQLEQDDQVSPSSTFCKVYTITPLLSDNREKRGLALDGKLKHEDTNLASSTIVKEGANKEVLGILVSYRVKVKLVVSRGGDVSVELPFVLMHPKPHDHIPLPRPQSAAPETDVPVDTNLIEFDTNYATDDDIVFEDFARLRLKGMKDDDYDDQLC

No constants are given. Whether binding was seen depends on the method and setting. Binding seen in cells or lysates may run through a third protein. Some results given as binding are weak or reduced against the parent protein; the word gives no strength.

Experiment [1] deals with NOP-RLuc (human) (UniProt P41146). Put plainly: FRET or BRET; membranes (3 μg protein) of HEK-293 cells (NOP-RLuc) or SH-SY5Y cells (Mu-RLuc) co-expressing Gβ1-RGFP, in Dulbecco's PBS; coelenterazine 5 μM; agonist peptides added for 5 min; room temperature.
The target in another experiment is Mu-RLuc (human) (UniProt P35372). The experiment can be described thus: FRET or BRET. Background: BRET reads energy transfer from a luciferase to a nearby fluorophore.
Experiment [2] deals with NOP-RLuc (human) (UniProt P41146). Put plainly: FRET or BRET; whole HEK-293 cells (NOP-RLuc) or SH-SY5Y cells (Mu-RLuc) co-expressing β-arrestin 2-RGFP, plated 24 h before, in DPBS with 0.5 mM MgCl2 and 0.9 mM CaCl2; coelenterazine 5 μM; agonist peptides added for 5 min; room temperature.

With Gβ1-RGFP (from UniProt P62873 1-340), the binding result with NOP-RLuc (human) [1] is on record as “binds”.

As for “β-arrestin 2-RGFP (from UniProt P32121 1-409)”, the binding result with Mu-RLuc (human) and with NOP-RLuc (human) [2] was “binds” each time.
